# The list shows a part of the results. Repeats in this data set agree poorly, so a single value says little.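 A first-round screen of about ten thousand compounds sought those raising reporter output, using human embryonic kidney cells briefly transfected with a plasmid carrying a Renilla luciferase gene driven by the HSV-TK promoter.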
# Tested on: HEK 293FT
# Assay: log relative Renilla luciferase luminescence (reporter expression vs reference, reference not stated) (log (base not stated)); higher = higher recombinant reporter expression
# Conditions: 10 µM; time after transfection 48 h
row,SMILES,log
1,O=C1CC[C@@H](C(=O)N2CSC[C@H]2C(=O)O)N1,-0.0861
2,COc1c(N2C[C@@H]3CCCN[C@@H]3C2)c(F)cc2c(=O)c(C(=O)O)cn(C3CC3)c12,-0.12
3,c1cnc(N2CCN(Cc3ccc4c(c3)OCO4)CC2)nc1 [Piribedil],0.111
4,Cc1cc2c(s1)Nc1ccccc1N=C2N1CCN(C)CC1,-0.0381
5,CN(C)CCOc1ccc(/C(=C(/CCCl)c2ccccc2)c2ccccc2)cc1,0.083
6,CC(C)c1ccc2oc3nc(N)c(C(=O)O)cc3c(=O)c2c1,-0.126
7,CC(C(=O)O)c1ccc(-c2ccccc2)c(F)c1 (stereo not given) [Flurbiprofen],0.0989
8,Nc1ccc2cn[nH]c2c1,0.0903
9,CCOC(=O)C1(CCCCCCOc2ccc(Cl)cc2)CO1 (stereo not given),-1.56
10,CS(=O)(=O)c1ccc(-c2cc(Br)sc2-c2ccc(F)cc2)cc1,0.0608
11,CCN1CCCC1CNC(=O)c1cc(S(=O)(=O)CC)c(N)cc1OC (stereo not given) [Amisulpride],0.258
12,COc1cc(OC)c(C(=O)CCCN2CCCC2)c(OC)c1,0.000416
13,CO[C@@H]1[C@@H](O[C@@H]2O[C@H](C)[C@@H](O[C@H]3C[C@@](C)(O)[C@@H](OC(=O)CC(C)C)[C@H](C)O3)[C@H](N(C)C)[C@H]2O)[C@@H](CC=O)C[C@@H](C)[C@@H](O)/C=C/C=C/C[C@@H](C)OC(=O)C[C@H]1O,-0.112
14,C[C@]12C[C@H](O)[C@H]3[C@@H](CCC4=CC(=O)CC[C@@]43C)[C@@H]1CC[C@@H]2C(=O)CO,-0.452
15,Cc1c(O)cccc1C(=O)N[C@@H](CSc1ccccc1)[C@H](O)CN1C[C@H]2CCCC[C@H]2C[C@H]1C(=O)NC(C)(C)C,-0.00677

# Pulled one by one from above (2):
row,SMILES,log
15,Cc1c(O)cccc1C(=O)N[C@@H](CSc1ccccc1)[C@H](O)CN1C[C@H]2CCCC[C@H]2C[C@H]1C(=O)NC(C)(C)C,-0.00677
5,CN(C)CCOc1ccc(/C(=C(/CCCl)c2ccccc2)c2ccccc2)cc1,0.083
